Data source: PubChem BioAssay AID1259425 (University of Nebraska Medical Center, 2018)

Test: 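Seek colon cancer weak points whose silencing resembles KSR1 loss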 (primary screen)
Cell system: HCT116 human colon cancer cells
Reagents: siRNA pool against human genes, 50 nM siRNA
Measured: 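mRNA of six signature genes measured together by branched-DNA assay after 50 nM siRNA pool, blank removed, divided by geometric mean of two housekeeping genes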
Direction: BNIP3L mRNA: higher = more BNIP3L transcript after knockdown; NDRG1 mRNA: higher = more NDRG1 transcript after knockdown; BNIP3 mRNA: higher = more BNIP3 transcript after knockdown; ALDOC mRNA: higher = more ALDOC transcript after knockdown; ACSL5 mRNA: higher = more ACSL5 transcript after knockdown
In all, the deposit lists about 14,000 reagents; this is an unselected part. Not given: the time to read-out.

| Gene | BNIP3L mRNA, set 1 | NDRG1 mRNA, set 1 | BNIP3 mRNA, set 1 | ALDOC mRNA, set 1 | ACSL5 mRNA, set 1 |
| --- | --- | --- | --- | --- | --- |
| SLC1A2 | 0.118 | 0.178 | 0.249 | 0.022 | 0.165 |
| THAP2 | 0.179 | 0.168 | 0.347 | 0.0669 | 0.231 |
| SPATA31C2 | 0.145 | 0.787 | 0.511 | 0.0253 | 0.225 |
| OR10J1 | 0.328 | 0.465 | 0.394 | 0.0397 | 0.232 |
| HCLS1 | 0.14 | 0.249 | 0.253 | 0.0174 | 0.182 |
| BTG2 | 0.0487 | 0.266 | 0.201 | 0.0117 | 0.134 |
| SLC31A2 | 0.258 | 0.209 | 0.739 | 0.0541 | 0.161 |
| MAPRE2 | 0.0853 | 0.0609 | 0.331 | 0.0303 | 0.0802 |
| NXPH3 | 0.0766 | 0.52 | 0.384 | 0.0107 | 0.168 |
| CIRBP | 0.137 | 0.118 | 0.204 | 0.00485 | 0.136 |
| PLXNA3 | 0.102 | 0.214 | 0.388 | 0.0617 | 0.111 |
| BLTP3A | 0.0716 | 0.0799 | 0.227 | 0.0107 | 0.184 |
| ASXL2 | 0.111 | 0.196 | 0.277 | 0.0177 | 0.152 |
| KLF4 | 0.11 | 0.17 | 0.322 | 0.00605 | 0.269 |
| THBS3 | 0.162 | 0.139 | 0.276 | 0.0336 | 0.229 |
| HECA | 0.0707 | 0.0998 | 0.27 | 0.0342 | 0.0937 |
| SARAF | 0.0398 | 0.0948 | 0.242 | 0.0118 | 0.242 |

Next part (4 carried over from the part before).
| Gene | BNIP3L mRNA, set 1 | NDRG1 mRNA, set 1 | BNIP3 mRNA, set 1 | ALDOC mRNA, set 1 | ACSL5 mRNA, set 1 |
| --- | --- | --- | --- | --- | --- |
| KLF4 | 0.11 | 0.17 | 0.322 | 0.00605 | 0.269 |
| THBS3 | 0.162 | 0.139 | 0.276 | 0.0336 | 0.229 |
| HECA | 0.0707 | 0.0998 | 0.27 | 0.0342 | 0.0937 |
| SARAF | 0.0398 | 0.0948 | 0.242 | 0.0118 | 0.242 |
| STK17A | 0.0872 | 0.0889 | 0.247 | 0.0124 | 0.173 |
| WWC2 | 0.225 | 1.14 | 0.535 | 0.0312 | 0.685 |
| ABCC10 | 0.108 | 0.139 | 0.297 | 0.00731 | 0.213 |
| HEBP2 | 0.129 | 0.0973 | 0.58 | 0.0304 | 0.214 |
| GABRA5 | 0.0986 | 0.232 | 0.149 | 0.0396 | 0.225 |
| MCM3 | 0.0855 | 0.121 | 0.363 | 0.0215 | 0.128 |
| KLK2 | 0.083 | 0.166 | 0.271 | 0.0479 | 0.0669 |
| RPGRIP1L | 0.161 | 0.132 | 0.205 | 0.0235 | 0.228 |
| FHL2 | 0.102 | 0.178 | 0.234 | 0.022 | 0.113 |
| RPL24 | 0.0755 | 0.255 | 0.283 | 0.011 | 0.118 |
| TMEM163 | 0.158 | 0.411 | 0.373 | 0.0245 | 0.214 |
| IHH | 0.115 | 0.153 | 0.225 | 0.0173 | 0.0744 |
| NBEAL2 | 0.165 | 0.516 | 0.396 | 0.0494 | 0.0641 |
| ZNF747 | 0.112 | 0.085 | 0.371 | 0.0198 | 0.121 |
| PLEKHA3 | 0.173 | 0.298 | 0.205 | 0.0306 | 0.139 |
| GTF3C1 | 0.13 | 0.216 | 0.386 | 0.0225 | 0.248 |
| TRAIP | 0.0658 | 0.0638 | 0.249 | 0.0225 | 0.16 |
| MMP12 | 0.0497 | 0.492 | 0.329 | 0.0361 | 0.323 |
| PLEKHB1 | 0.637 | 1.88 | 0.955 | 0.0443 | 0.281 |
| LTBP4 | 0.0875 | 0.23 | 0.272 | 0.0295 | 0.326 |
| ZFAND6 | 0.0946 | 0.0937 | 0.278 | 0.0355 | 0.0967 |
| APH1A | 0.119 | 0.145 | 0.268 | 0.0219 | 0.201 |
| DSTYK | 0.0531 | 0.0696 | 0.236 | 0.0187 | 0.179 |
| CTRB1 | 0.131 | 0.134 | 0.27 | 0.0301 | 0.145 |
| SLC2A1 | 0.0839 | 0.152 | 0.34 | 0.0174 | 0.169 |
| FBXO7 | 0.075 | 0.213 | 0.211 | 0.0306 | 0.173 |
| PDS5B | 0.135 | 0.236 | 0.34 | 0.0142 | 0.229 |
| SPTAN1 | 0.178 | 0.354 | 0.371 | 0.0423 | 0.227 |
| PLGRKT | 0.0792 | 0.108 | 0.265 | 0.0369 | 0.217 |
| ENGASE | 0.0876 | 0.128 | 0.23 | 0.0399 | 0.232 |
| SRI | 0.251 | 0.765 | 0.225 | 0.0568 | 0.311 |
| RUNX1 | 0.0675 | 0.143 | 0.22 | 0.0103 | 0.168 |
| TUBB4B | 0.0651 | 0.198 | 0.197 | 0.01 | 0.103 |
